According to US20230183249A1, “NEW TRIAZINOINDOLE COMPOUNDS” (JANSSEN PHARMACEUTICA NV, priority 2020, published 2023):
The structures given here were assigned with low confidence; some may be wrong.

The chains behind the UniProt entries cited, without tags or fusion partners.
UniProt Q96P20, whole entry: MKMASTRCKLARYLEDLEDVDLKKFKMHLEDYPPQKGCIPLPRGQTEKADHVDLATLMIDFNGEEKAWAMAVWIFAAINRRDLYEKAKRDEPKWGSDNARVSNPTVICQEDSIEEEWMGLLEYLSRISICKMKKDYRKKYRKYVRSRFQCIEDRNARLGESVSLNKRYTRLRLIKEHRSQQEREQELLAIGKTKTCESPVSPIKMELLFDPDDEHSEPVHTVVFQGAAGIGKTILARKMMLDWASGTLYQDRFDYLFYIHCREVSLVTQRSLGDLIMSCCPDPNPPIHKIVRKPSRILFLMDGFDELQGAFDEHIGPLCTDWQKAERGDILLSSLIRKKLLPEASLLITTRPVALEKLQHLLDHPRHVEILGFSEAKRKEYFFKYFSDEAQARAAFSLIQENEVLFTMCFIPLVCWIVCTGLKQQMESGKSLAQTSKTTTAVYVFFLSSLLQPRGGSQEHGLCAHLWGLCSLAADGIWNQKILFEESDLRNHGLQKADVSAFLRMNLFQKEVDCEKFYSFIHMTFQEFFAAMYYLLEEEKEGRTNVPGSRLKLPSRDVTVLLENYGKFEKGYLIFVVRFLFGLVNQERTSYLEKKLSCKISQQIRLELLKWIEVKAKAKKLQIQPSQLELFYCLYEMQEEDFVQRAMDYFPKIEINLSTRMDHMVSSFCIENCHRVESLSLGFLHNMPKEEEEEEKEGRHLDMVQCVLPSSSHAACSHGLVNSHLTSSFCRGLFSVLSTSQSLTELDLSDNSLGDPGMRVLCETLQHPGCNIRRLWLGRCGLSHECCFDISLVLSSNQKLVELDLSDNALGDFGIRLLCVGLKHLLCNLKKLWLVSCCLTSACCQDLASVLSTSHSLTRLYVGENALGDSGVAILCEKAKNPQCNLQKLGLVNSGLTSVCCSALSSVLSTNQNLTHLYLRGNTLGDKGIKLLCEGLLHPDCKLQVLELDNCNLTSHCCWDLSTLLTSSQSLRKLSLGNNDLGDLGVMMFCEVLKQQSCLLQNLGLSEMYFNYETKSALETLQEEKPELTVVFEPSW

Tests used:
[1] = target: NLRP3 (Homo sapiens, UniProt Q96P20); assay: PBMC assay, IL-1β release after LPS stimulation; assay type: cell-based; settings: read-out: IL1β IC50; human PBMCs, 100 ng/ml LPS for 6 hrs, IL-1β in supernatant via MSD
[2] = test system: TNF; assay: PBMC assay, TNF cytokine levels after LPS stimulation; settings: read-out: TNF EC50; human PBMCs, 100 ng/ml LPS for 6 hrs, TNF in supernatant via MSD

Row | IC50 [1] [nM] | EC50 [2] [nM] | Structure (SMILES)
1 | 660 | > 10000 | CCc1nn(CC(=O)NC2CC2)c(=O)c2cc3ccccc3n12
2 | 840 | > 10000 | CC(C)c1nn(CC(=O)Nc2ncco2)c(=O)c2cc3ccccc3n12
3 |  | > 20000 | CC(C)c1nn(CC(=O)Nc2ccc3nncn3c2)c(=O)c2cc3ccccc3n12
